For some assays here: No signal at the amounts used counts as a negative. For some assays here: Construct, isoform or probe ends are uncertain for at least one entry.
Columns and labels:
[1] = biological target: AtTERT aa320-580 (N-terminally truncated TRBD) (Arabidopsis thaliana) (UniProt Q9SPU7); assay: EMSA; settings: 40 nM RNA, 0-400 nM protein, no mobility change; EMSA: 50 mM Tris-HCl (pH not stated), 250 mM NaCl, 10 mM potassium acetate, 3% glycerol added before loading; 20 min at room temperature; recombinant protein; residues 320-580; label: none (Sybr Green II stain); probe letters rebuilt from the primers and the genome; part of a longer molecule
[2] = biological target: AtTERT aa229-580 (unstructured linker + TRBD) (Arabidopsis thaliana) (UniProt Q9SPU7); assay: EMSA; settings: 40 nM RNA, 0-400 nM protein; EMSA: 50 mM Tris-HCl (pH not stated), 250 mM NaCl, 10 mM potassium acetate, 3% glycerol added before loading; 20 min at room temperature; recombinant protein; residues 229-580; label: none (Sybr Green II stain); probe letters rebuilt from the primers and the genome; part of a longer molecule

The chains behind the UniProt entries cited, without tags or fusion partners. Residues count along the entry.
UniProt Q9SPU7, 320-580: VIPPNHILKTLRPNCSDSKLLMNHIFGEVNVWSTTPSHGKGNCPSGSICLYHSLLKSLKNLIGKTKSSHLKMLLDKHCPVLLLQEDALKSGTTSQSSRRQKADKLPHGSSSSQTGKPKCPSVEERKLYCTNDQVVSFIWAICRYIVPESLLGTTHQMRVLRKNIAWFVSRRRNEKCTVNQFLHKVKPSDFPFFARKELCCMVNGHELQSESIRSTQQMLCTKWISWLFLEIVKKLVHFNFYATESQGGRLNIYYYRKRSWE
UniProt Q9SPU7, 229-580: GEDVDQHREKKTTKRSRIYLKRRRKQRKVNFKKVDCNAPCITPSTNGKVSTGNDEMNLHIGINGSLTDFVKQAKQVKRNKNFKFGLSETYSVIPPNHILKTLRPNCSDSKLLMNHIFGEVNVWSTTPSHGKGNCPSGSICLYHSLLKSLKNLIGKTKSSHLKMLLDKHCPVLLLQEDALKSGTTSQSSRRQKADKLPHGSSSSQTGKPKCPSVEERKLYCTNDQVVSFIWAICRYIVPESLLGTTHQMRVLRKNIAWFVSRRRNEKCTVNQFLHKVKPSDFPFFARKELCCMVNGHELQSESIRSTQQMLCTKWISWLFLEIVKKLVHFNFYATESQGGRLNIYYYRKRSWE

AAGGGGUGUGGGAACCUAGGAGAUGAGUCUGCUUAUUGAUUGCUAAACCCUGAACCCUCUCAUGUUAACUAUGGGAAUUAAUUACUGGGGGUCUUAGGCCGGCGUUUCCCCCGAAAAAUAAUGAAAAAACGUCGAUGGCUACAUAAGAGGCUCGUCUCCAAAAAGUAGACCAGGAGGUUGGGUUUGGUUCGUAGGUGGUUCUGUUGAAACUAGAUUAGUGUCUGCGGUUAACCGUUUCCUCGCCUUACCCUCCCACCCCCAAA [AtTR full length (nts1-262)]
binding result [1]: no binding
binding result [2]: binds

Reference: article PMC11093817
